Measured values as given in the supplement of paper PMC3334620.
Over roughly 33,000 sequences, “E-score (-0.5 to 0.5)” has its median near -0.0014; the highest 2% begin near 0.25. Some of the results follow.

biological target: T1, Cad1 (UniProt P24813); test: PBM E-score (8-mer binding enrichment) (E-score (-0.5 to 0.5)); higher = stronger / more preferred TF binding; conditions: protein concentration: 100 nM; construct: GST-full length
T1 sequence: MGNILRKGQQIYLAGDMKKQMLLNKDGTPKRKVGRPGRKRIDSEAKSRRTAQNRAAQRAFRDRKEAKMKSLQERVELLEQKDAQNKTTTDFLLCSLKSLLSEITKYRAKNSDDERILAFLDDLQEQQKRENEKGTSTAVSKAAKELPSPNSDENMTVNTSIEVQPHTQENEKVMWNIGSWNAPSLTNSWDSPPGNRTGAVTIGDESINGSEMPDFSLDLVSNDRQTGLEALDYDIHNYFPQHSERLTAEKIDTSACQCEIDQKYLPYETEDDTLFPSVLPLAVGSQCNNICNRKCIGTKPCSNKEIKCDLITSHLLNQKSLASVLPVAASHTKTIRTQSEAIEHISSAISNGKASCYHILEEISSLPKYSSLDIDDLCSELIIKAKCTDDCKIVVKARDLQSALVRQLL
Protocol: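 Universal 'all 10-mer' protein binding microarrays (Agilent AMADID 015681) probed with GST-tagged S. cerevisiae TFs (full-length or DBD) made by in vitro transcription/translation (PURExpress), about 100-200 nM. Bound TF was detected with fluorescent anti-GST. Each ungapped 8-mer (which stands for itself and its reverse complement) is scored by the PBM enrichment score (E-score), a modified Wilcoxon-Mann-Whitney statistic from -0.5 to +0.5, computed with the Universal PBM Analysis Suite. Scale: above 0.35 generally sequence-specific binding.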

Sequence	PBM E-score
ACAGGGGT	-0.276
AGCAGCAA	-0.0226
GGGCGGGA	0.0845
AGCGTTTG	-0.069
CGGAGTGC	0.109
CCGTCCAA	-0.0376
ACCAACAC	0.136
GCAGGCAC	-0.264
ACGACCGT	-0.266
CGAGTACA	-0.0347
AGGATCGC	0.0539
GCTGTCCC	-0.129
CGCCCCAA	0.0555
CGTTTCTC	-0.229
AGCGTGCC	-0.091
ACTGGCTA	-0.114
CTCAGTAC	-0.0509
GAGTTCCA	-0.0572
CAACAAGA	-0.0155
AGGACCAA	-0.143
AACTCCAA	-0.0328
CCACCTAC	-0.198
CATAAAAG	-0.0296
ACATCGAA	0.169
AGATAGGA	-0.0626

Sequence	PBM E-score
AGGAGTAG	-0.112
ACTTACAT	0.0914
AGAAACAC	0.132
CCCGCTAC	0.117
CCTCTGTC	-0.0423
CACGTAAA	-0.106
AAAAGGAT	0.0254
GACGTCAC	0.00126
ACCATAAC	0.04
GAGGCGAC	-0.14
AGCAACTA	0.0746
CCTTAGTC	0.0508
CAAAGTTA	0.118
ATCTTAAT	0.0449
CTGGTTAC	-0.119
TCGGCCCA	-0.0821
ATTTGGGG	0.00808
CAAGCGAA	-0.0753
GGCTCGGA	-0.155
TCGTTACA	0.0786
GGTAGGGA	-0.096
AAGGCCGG	-0.111
GCTTAGAA	0.19
CTGTAGCA	-0.141
AATCCATC	0.0347

Sequence	PBM E-score
CAGGTTGA	-0.255
CCTCCATC	-0.237
CACATAGG	-0.0806
AAAATAAG	0.208
ATTGCTTC	-0.0332
AAAACAAC	-0.13
ATCGCGGC	0.178
CCATGCAG	-0.0439
AGGGCAAC	0.0979
ACATTTCT	0.142
CACTCAAG	-0.114
AACCGGCA	-0.00567
CGAACGCA	0.236
GCGCCTCA	-0.0183
ATTTCCAG	0.145
CCCATATC	0.0133
CCCTTAAA	-0.182
CGCAACAA	0.0963
GCTTCTAA	-0.0938
AGGTCCTC	-0.194
AGCGTGAA	-0.0191
TAGGCAGA	-0.0397
GCTGGGCA	0.0663
GAGTGATC	0.0266
ATTTACGA	0.113

Sequence	PBM E-score
ATCTGACC	0.0388
AAGACCGC	-0.124
CATCATCG	0.0611
CCACCTAG	-0.27
ACCAACTA	0.154
TCCGGAGA	-0.0135
TTACACAA	0.247
TCGCTGCA	-0.0819
CTGGATTA	0.212
ATACTCGA	-0.0898
CGCGCGCG	0.214
CTGTAGAC	-0.0298
ATGACTTA	0.18
AACGTAGC	-0.053
GCTGCTCC	-0.193
CACGGAAG	-0.00842
GAGCGCGA	0.236
ACATGGGC	0.0187
ACCCTTCT	-0.0996
TCCGCTAA	0.058
CGCCGTCA	-0.0993
CGCTGTAC	0.0343
CGTATGGC	0.14
GTCTTGGA	-0.123
CCGCGCCC	-0.183

Sequence	PBM E-score
AAGAGTAC	-0.0506
GGCCCGGA	-0.328
AATAGAGC	0.0624
TCTCAAGA	-0.0659
CAAAATCA	0.0621
CGAGGTCA	0.0515
GCTCCCGA	-0.124
TAAATCTA	0.114
AGGGAAGG	-0.335
AGCTGCGC	0.0681
CCATTCTC	-0.114
ACTTGCGC	0.0495
CGGTGTAG	-0.00445
ATAGTACA	0.0832
AACGCAAT	0.139
AAGCATCA	-0.0135
ACCACTTC	-0.138
GATGGTGC	-0.244
AGGTGCTA	-0.0384
ATGAACTA	0.0699
ACGTCTTC	0.00728
ACCTATGC	-0.0824
CGCGTTAG	0.124
ATACGTGA	0.072
CCCAGCCA	-0.12

Sequence	PBM E-score
CCTCGGTA	-0.118
ATGTCTAG	0.109
CGGCATAG	-0.0547
TATTTTAA	0.107
CCCATCAG	-0.191
CCCGACAG	-0.161
ATTACGAA	0.327
ACCCCAGC	-0.00095
ACGCAAAC	0.143
ATATGAAT	0.12
AGGCCGGC	-0.166
CCCGTTAG	-0.187
TCTTAGCA	-0.0984
AGTAAGTG	0.044
AGTGACCA	-0.0676
GGCGCGAA	0.0675
GTGAACAC	0.0122
ATATATTA	0.368
CGCGCGAC	0.18
AAAGGGGA	-0.325
TCCGAACA	0.144
ACACTGTG	0.134
ACACGCAC	-0.0647
ATCCGCCC	-0.199
GACACACA	0.134

Sequence	PBM E-score
ACGCCACG	0.0104
CCGCCAGA	0.0805
CAGAAGGG	-0.208
CGTACCAC	0.0587
GCTACCCC	-0.35
ACGGTCAC	-0.0969
AACACCTA	-0.0404
CACGCAAC	0.169
CCCATGCC	-0.264
CAGCAGCC	-0.043
CGATACTC	0.0376
CCGTGAGG	-0.186
AGACGTAC	-0.0325
AACCTCTC	-0.202
AACGGCCG	0.153
CCCAGGCA	-0.193
GTAACTTA	0.17
GGTTTCAC	0.00803
GGCTGGGA	-0.0727
CATCCCGA	0.0198
GCCTCTCA	-0.147
GTATAAAA	0.18

Another view of part of the listing above.
Sequence | PBM E-score
CTGTAGAC | -0.0298
ATGACTTA | 0.18
AACGTAGC | -0.053
GCTGCTCC | -0.193
CACGGAAG | -0.00842
GAGCGCGA | 0.236
ACATGGGC | 0.0187
ACCCTTCT | -0.0996
TCCGCTAA | 0.058
CGCCGTCA | -0.0993
CGCTGTAC | 0.0343
CGTATGGC | 0.14
GTCTTGGA | -0.123
CCGCGCCC | -0.183
AAGAGTAC | -0.0506
GGCCCGGA | -0.328
AATAGAGC | 0.0624
TCTCAAGA | -0.0659
CAAAATCA | 0.0621
CGAGGTCA | 0.0515
GCTCCCGA | -0.124
TAAATCTA | 0.114
AGGGAAGG | -0.335
AGCTGCGC | 0.0681
CCATTCTC | -0.114
ACTTGCGC | 0.0495
CGGTGTAG | -0.00445
ATAGTACA | 0.0832
AACGCAAT | 0.139
AAGCATCA | -0.0135
ACCACTTC | -0.138
GATGGTGC | -0.244
AGGTGCTA | -0.0384
ATGAACTA | 0.0699
